These results are taken from PMC8339327.

No constants are given. Whether binding was seen depends on the method and setting. In cells and extracts the contact can be indirect.

In this assay the target is cyclin-B (human (endogenous in AGS)). Description: co-IP; AGS cell lysates, RASSF10 against cyclin-B, Cdk1 or NPM; also reverse co-IP; Western blot. (In western blotting, separated proteins are transferred to a membrane and probed.)

B1: RASSF10 (protein, UniProt A6NK89 1-507)
chain: MDPSEKKISVWICQEEKLVSGLSRRTTCSDVVRVLLEDGCRRRRRQRRSRRLGSAGDPHGPGELPEPPNEDDEDDDEALPQGMLCGPPQCYCIVEKWRGFERILPNKTRILRLWAAWGEEQENVRFVLVRSEASLPNAGPRSAEARVVLSRERPCPARGAPARPSLAMTQEKQRRVVRKAFRKLAKLNRRRQQQTPSSCSSTSSSTASSCSSSPRTHESASVERMETLVHLVLSQDHTIRQQVQRLHELDREIDHYEAKVHLDRMRRHGVNYVQDTYLVGAGIELDGSRPGEEPEEVAAEAEEAAAAPPLAGEAQAAALEELARRCDDLLRLQEQRVQQEELLERLSAEIQEELNQRWMRRRQEELAAREEPLEPDGGPDGELLLEQERVRTQLSTSLYIGLRLNTDLEAVKSDLDYSQQQWDSKKRELQGLLQTLHTLELTVAPDGAPGSGSPSREPGPQACADMWVDQARGLAKSGPGNDEDSDTGLSSMHSQDSDSLPMCESLV
With B1, the binding result is “no binding”.
